The target of test [1] is T1, SPL15 (yeast two-hybrid fusion) (Arabidopsis thaliana) (UniProt Q9M2Q6).
T1 sequence: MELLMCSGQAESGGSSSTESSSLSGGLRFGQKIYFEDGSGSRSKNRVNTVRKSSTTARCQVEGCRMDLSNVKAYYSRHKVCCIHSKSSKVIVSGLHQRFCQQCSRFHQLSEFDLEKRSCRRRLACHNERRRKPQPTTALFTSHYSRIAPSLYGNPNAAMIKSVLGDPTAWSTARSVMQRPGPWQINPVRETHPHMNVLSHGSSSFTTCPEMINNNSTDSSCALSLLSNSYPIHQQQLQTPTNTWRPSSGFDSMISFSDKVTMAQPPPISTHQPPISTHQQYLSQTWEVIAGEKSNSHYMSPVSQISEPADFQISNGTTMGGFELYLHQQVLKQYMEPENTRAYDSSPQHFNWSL
As to the kind of experiment: two-hybrid; LexA/AD system in yeast strain EGY48 plus H18; SD/-Ura/-Trp/-His, then raffinose, galactose and X-gal for blue color development.

Test [2] deals with T2, SPL9 (yeast two-hybrid fusion) (Arabidopsis thaliana) (UniProt Q700W2).
T2 sequence: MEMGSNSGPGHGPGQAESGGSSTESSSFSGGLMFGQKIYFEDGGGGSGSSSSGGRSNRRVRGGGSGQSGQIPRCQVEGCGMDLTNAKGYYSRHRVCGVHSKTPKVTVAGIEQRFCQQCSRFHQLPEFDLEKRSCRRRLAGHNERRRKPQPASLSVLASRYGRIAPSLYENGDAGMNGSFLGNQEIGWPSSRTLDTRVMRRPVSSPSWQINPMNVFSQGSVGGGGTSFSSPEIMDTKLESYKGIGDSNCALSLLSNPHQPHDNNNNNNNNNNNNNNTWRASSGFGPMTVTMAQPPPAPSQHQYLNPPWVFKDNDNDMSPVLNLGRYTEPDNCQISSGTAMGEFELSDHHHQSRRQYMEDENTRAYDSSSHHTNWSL
Described as above.

Test [3] has as its target T3, SPL9 fused to the C-terminal fragment of YFP (BiFC) (Arabidopsis thaliana) (UniProt Q700W2).
T3 sequence: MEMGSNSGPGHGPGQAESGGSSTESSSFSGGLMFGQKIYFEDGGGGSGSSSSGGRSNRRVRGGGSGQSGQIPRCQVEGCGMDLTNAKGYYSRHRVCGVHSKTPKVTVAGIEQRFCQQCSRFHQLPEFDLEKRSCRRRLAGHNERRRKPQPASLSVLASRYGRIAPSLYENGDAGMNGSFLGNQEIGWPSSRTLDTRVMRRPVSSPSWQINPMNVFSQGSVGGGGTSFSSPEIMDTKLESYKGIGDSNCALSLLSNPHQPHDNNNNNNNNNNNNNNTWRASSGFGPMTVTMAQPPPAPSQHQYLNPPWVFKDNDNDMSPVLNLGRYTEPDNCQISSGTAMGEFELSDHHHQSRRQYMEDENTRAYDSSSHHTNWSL
As to the kind of experiment: split reporter; BiFC (nYFP/cYFP) in N. benthamiana leaf epidermal cells; fluorescence visualized 48 h after infiltration, confocal microscope.

Test [4] deals with T4, SPL15 fused to the C-terminal fragment of YFP (BiFC) (Arabidopsis thaliana) (UniProt Q9M2Q6).
T4 sequence: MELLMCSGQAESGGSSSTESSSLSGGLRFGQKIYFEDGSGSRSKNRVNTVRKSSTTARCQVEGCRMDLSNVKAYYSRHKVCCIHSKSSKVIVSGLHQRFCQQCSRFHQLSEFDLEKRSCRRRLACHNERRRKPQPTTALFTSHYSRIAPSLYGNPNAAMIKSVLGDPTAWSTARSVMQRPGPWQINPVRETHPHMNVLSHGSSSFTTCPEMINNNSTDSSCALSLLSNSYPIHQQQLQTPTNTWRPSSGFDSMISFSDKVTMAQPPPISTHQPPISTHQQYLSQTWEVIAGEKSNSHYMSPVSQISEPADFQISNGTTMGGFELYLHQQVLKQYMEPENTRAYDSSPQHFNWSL
The test is described as above.

These are yes or no findings as the source states them, for the method shown. For part of these data: Binding seen in cells or lysates may run through a third protein. Some binding calls cover weakened binding; strength is not graded here. Sequences can lack the tags named with a protein.

B1: FHY3-I domain (yeast two-hybrid fusion) (domain or fragment, UniProt Q9LIE5 1-251)
chain: MDIDLRLHSGDLCKGDDEDRGLDNVLHNEEDMDIGKIEDVSVEVNTDDSVGMGVPTGELVEYTEGMNLEPLNGMEFESHGEAYSFYQEYSRAMGFNTAIQNSRRSKTTREFIDAKFACSRYGTKREYDKSFNRPRARQSKQDPENMAGRRTCAKTDCKASMHVKRRPDGKWVIHSFVREHNHELLPAQAVSEQTRKIYAAMAKQFAEYKTVISLKSDSKSSFEKGRTLSVETGDFKILLDFLSRMQSLNSN
Regarding B1, the binding entry in test [1] and in test [2] was “binds” throughout.

B2: SMXL8 (yeast two-hybrid fusion) (protein, UniProt F4IGZ2 1-910)
chain: MPTAVNVAKQCLTAEASYALEEAVNVARRRGHSQTTSLHAISALLSLPTSVLRDACARVRNSAYSPRLQFKALDLCLSVSLDRIQSGHQLGSDDSPPVSNSLMAAIKRSQAHQRRLPENFRIYQEMSQSQNQNSLSCVKVELRQLILSILDDPVVSRVFGEAGFRSSELKLSIIRPVPHLLRYSSQQPLFLCNLTGNPEPNPVRWGFTVPSLNFNGDLDYRRISAVFTKDKGRNPLLVGVSAYGVLTSYLNSLEKNQTDGMILPTKLHGLTAVNIGSEISDQISVKFDKTYTDTRFHDLGKLAEQGSGPGLLLHYGDLRVFTNGEGNVPAANYIVNRISELLRRHGRRVWLIGATTSNEVYEKMMRRFPNVEKDWDLQLLTITSLKPCLPHNKSSLIGSFVPFGGFFSTTPSELKLPFSGFKTEITGPVSSISDQTQSTLPPWLQMTTRTDLNQKSSAKVVQTKEGLESVCGNKFTSSASASTCSAKSVTTDLNLRVSSVTTGSGLKKHLDSKDFSQPQSVSSYSFDNPRDLNAESFKIIYRRLTDMVSGQDEAARVISCALSQPPKSVTRRDVWLNLVGPDTVGKRRMSLVLAEIVYQSEHRFMAVDLGAAEQGMGGCDDPMRLRGKTMVDHIFEVMCRNPFCVVFLENIEKADEKLQMSLSKAIETGKFMDSHGREVGIGNTIFVMTSSSQGSATTTSYSEEKLLRVKGRQVEIRIETVSSLPMVRSVYGPTSVNKRKLMGLGNLQETKDTVESVKRLNRTTNGVLDLNLPAQETEIEEKYHCEENSNVWLMNLKNHKRLIEVPFKPFDFEGLAEKIKKSVKENFDKCVRSDCLLEVDPKIIERLLAAVYFSDSRKDIKELLENIMSPVFLRIKERYEITTSCVVKLVGRDLDIFLEDQMDLFFVKSQ
Consider B2, for which the binding result in test [1] and in test [2] was “binds” throughout.

B3: SMXL8 SPYNE fusion (BiFC) (protein, UniProt F4IGZ2 1-910)
chain: MPTAVNVAKQCLTAEASYALEEAVNVARRRGHSQTTSLHAISALLSLPTSVLRDACARVRNSAYSPRLQFKALDLCLSVSLDRIQSGHQLGSDDSPPVSNSLMAAIKRSQAHQRRLPENFRIYQEMSQSQNQNSLSCVKVELRQLILSILDDPVVSRVFGEAGFRSSELKLSIIRPVPHLLRYSSQQPLFLCNLTGNPEPNPVRWGFTVPSLNFNGDLDYRRISAVFTKDKGRNPLLVGVSAYGVLTSYLNSLEKNQTDGMILPTKLHGLTAVNIGSEISDQISVKFDKTYTDTRFHDLGKLAEQGSGPGLLLHYGDLRVFTNGEGNVPAANYIVNRISELLRRHGRRVWLIGATTSNEVYEKMMRRFPNVEKDWDLQLLTITSLKPCLPHNKSSLIGSFVPFGGFFSTTPSELKLPFSGFKTEITGPVSSISDQTQSTLPPWLQMTTRTDLNQKSSAKVVQTKEGLESVCGNKFTSSASASTCSAKSVTTDLNLRVSSVTTGSGLKKHLDSKDFSQPQSVSSYSFDNPRDLNAESFKIIYRRLTDMVSGQDEAARVISCALSQPPKSVTRRDVWLNLVGPDTVGKRRMSLVLAEIVYQSEHRFMAVDLGAAEQGMGGCDDPMRLRGKTMVDHIFEVMCRNPFCVVFLENIEKADEKLQMSLSKAIETGKFMDSHGREVGIGNTIFVMTSSSQGSATTTSYSEEKLLRVKGRQVEIRIETVSSLPMVRSVYGPTSVNKRKLMGLGNLQETKDTVESVKRLNRTTNGVLDLNLPAQETEIEEKYHCEENSNVWLMNLKNHKRLIEVPFKPFDFEGLAEKIKKSVKENFDKCVRSDCLLEVDPKIIERLLAAVYFSDSRKDIKELLENIMSPVFLRIKERYEITTSCVVKLVGRDLDIFLEDQMDLFFVKSQ
With B3, the binding result in test [3] and in test [4] was “binds” throughout.

B4: FHY3 fused to the N-terminal fragment of YFP (BiFC) (protein, UniProt Q9LIE5 1-839)
chain: MDIDLRLHSGDLCKGDDEDRGLDNVLHNEEDMDIGKIEDVSVEVNTDDSVGMGVPTGELVEYTEGMNLEPLNGMEFESHGEAYSFYQEYSRAMGFNTAIQNSRRSKTTREFIDAKFACSRYGTKREYDKSFNRPRARQSKQDPENMAGRRTCAKTDCKASMHVKRRPDGKWVIHSFVREHNHELLPAQAVSEQTRKIYAAMAKQFAEYKTVISLKSDSKSSFEKGRTLSVETGDFKILLDFLSRMQSLNSNFFYAVDLGDDQRVKNVFWVDAKSRHNYGSFCDVVSLDTTYVRNKYKMPLAIFVGVNQHYQYMVLGCALISDESAATYSWLMETWLRAIGGQAPKVLITELDVVMNSIVPEIFPNTRHCLFLWHVLMKVSENLGQVVKQHDNFMPKFEKCIYKSGKDEDFARKWYKNLARFGLKDDQWMISLYEDRKKWAPTYMTDVLLAGMSTSQRADSINAFFDKYMHKKTSVQEFVKVYDTVLQDRCEEEAKADSEMWNKQPAMKSPSPFEKSVSEVYTPAVFKKFQIEVLGAIACSPREENRDATCSTFRVQDFENNQDFMVTWNQTKAEVSCICRLFEYKGYLCRHTLNVLQCCHLSSIPSQYILKRWTKDAKSRHFSGEPQQLQTRLLRYNDLCERALKLNEEASLSQESYNIAFLAIEGAIGNCAGINTSGRSLPDVVTSPTQGLISVEEDNHSRSAGKTSKKKNPTKKRKVNPEQDVMPVAAPESLQQMDKLSPRTVGIESYYGTQQSVQGMVQLNLMGPTRDNFYGNQQTMQGLRQLNSIAPSYDSYYGPQQGIHGQGVDFFRPANFSYDIRDDPNVRTTQLHEDASRHS
For B4, the binding result in test [3] and in test [4] was “binds” throughout.

B5: SMXL6 SPYNE fusion (BiFC) (protein, UniProt Q9LML2 1-979)
chain: MPTPVTTARECLTEEAARALDDAVVVARRRSHAQTTSLHAVSALLAMPSSILREVCVSRAARSVPYSSRLQFRALELCVGVSLDRLPSSKSPATEEDPPVSNSLMAAIKRSQANQRRHPESYHLQQIHASNNGGGGCQTTVLKVELKYFILSILDDPIVNRVFGEAGFRSSEIKLDVLHPPVTQLSSRFSRGRCPPLFLCNLPNSDPNREFPFSGSSGFDENSRRIGEVLGRKDKKNPLLIGNCANEALKTFTDSINSGKLGFLQMDISGLSLISIEKEISEILADGSKNEEEIRMKVDDLGRTVEQSGSKSGIVLNLGELKVLTSEANAALEILVSKLSDLLKHESKQLSFIGCVSSNETYTKLIDRFPTIEKDWDLHVLPITASTKPSTQGVYPKSSLMGSFVPFGGFFSSTSNFRVPLSSTVNQTLSRCHLCNEKYLQEVAAVLKAGSSLSLADKCSEKLAPWLRAIETKEDKGITGSSKALDDANTSASQTAALQKKWDNICQSIHHTPAFPKLGFQSVSPQFPVQTEKSVRTPTSYLETPKLLNPPISKPKPMEDLTASVTNRTVSLPLSCVTTDFGLGVIYASKNQESKTTREKPMLVTLNSSLEHTYQKDFKSLREILSRKVAWQTEAVNAISQIICGCKTDSTRRNQASGIWLALLGPDKVGKKKVAMTLSEVFFGGKVNYICVDFGAEHCSLDDKFRGKTVVDYVTGELSRKPHSVVLLENVEKAEFPDQMRLSEAVSTGKIRDLHGRVISMKNVIVVVTSGIAKDNATDHVIKPVKFPEEQVLSARSWKLQIKLGDATKFGVNKRKYELETAQRAVKVQRSYLDLNLPVNETEFSPDHEAEDRDAWFDEFIEKVDGKVTFKPVDFDELAKNIQEKIGSHFERCFGSETHLELDKEVILQILAASWSSLSSGEEEGRTIVDQWMQTVLARSFAEAKQKYGSNPMLGVKLVASSSGLASGVELPAKVDVIW
In the case of B5, the binding result in test [3] and in test [4] was “binds” in each case.

B6: FAR1 fused to the N-terminal fragment of YFP (BiFC) (protein, UniProt Q9SWG3 1-827)
chain: MDLQENLVSDAGDDHMVDIVVEPHSNRDIGIVDEFNIGGDVGFSGDLDLEPRNGIDFDTHEAAYIFYQEYAKSMGFTTSIKNSRRSKKTKDFIDAKFACSRYGVTPESESSGSSSRRSTVKKTDCKASMHVKRRPDGKWIIHEFVKDHNHELLPALAYHFRIQRNVKLAEKNNIDILHAVSERTKKMYVEMSRQSGGYKNIGSLLQTDVSSQVDKGRYLALEEGDSQVLLEYFKRIKKENPKFFYAIDLNEDQRLRNLFWADAKSRDDYLSFNDVVSFDTTYVKFNDKLPLALFIGVNHHSQPMLLGCALVADESMETFVWLIKTWLRAMGGRAPKVILTDQDKFLMSAVSELLPNTRHCFALWHVLEKIPEYFSHVMKRHENFLLKFNKCIFRSWTDDEFDMRWWKMVSQFGLENDEWLLWLHEHRQKWVPTFMSDVFLAGMSTSQRSESVNSFFDKYIHKKITLKEFLRQYGVILQNRYEEESVADFDTCHKQPALKSPSPWEKQMATTYTHTIFKKFQVEVLGVVACHPRKEKEDENMATFRVQDCEKDDDFLVTWSKTKSELCCFCRMFEYKGFLCRHALMILQMCGFASIPPQYILKRWTKDAKSGVLAGEGADQIQTRVQRYNDLCSRATELSEEGCVSEENYNIALRTLVETLKNCVDMNNARNNITESNSQLNNGTHEEENQVMAGVKATKKKTVYRKRKGQQEASQMLESQQSLQPMETISSEAMDMNGYYGPQQNVQGLLNLMEPPHEGYYVDQRTIQGLGQLNSIAPAQDSFFTNQQAMSGMVGQIDFRPPPNFTYTLQEEHLSSAQLPGSSSRQL
Consider B6, for which the binding entry in test [3] and in test [4] was “binds” throughout.

(Values after PMC7181604, “Arabidopsis FHY3 and FAR1 integrate light and strigolactone signaling to regulate branching”.)
